Taken from: PubChem BioAssay AID602196 (INSERM, 2012)

- Test: 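Modifiers of cisplatin sensitivity in A549 cells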
- Cell system: human A549 lung cancer cells
- Reagent: siRNA pair against human genes
- Timing: 48 h transfection before cisplatin; time from cisplatin to read-out not stated
- Treatment: cisplatin at a dose killing half of control-siRNA cells; exact dose and duration not given
- Read-out: 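Cisplatin cell death as a shift from the 50% death seen with control siRNA; siRNAs toxic or growth-blocking alone scored 0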
- Direction: two-siRNA summed score (-2 to +2): higher = both siRNAs protect from cisplatin killing; -2 means both sensitise; mean protection from cisplatin (shift in death): higher = protection from cisplatin killing
- Rule for the call: 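Each siRNA scores 0 if harmful alone by LDH or WST-1, otherwise +1 if it reduces and -1 if it increases cisplatin killing; a gene is active when both siRNAs agree (sum +2 or -2)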
- Meaning of the calls: active = both siRNAs shift cisplatin killing the same way; inactive = no consistent shift, or siRNA harmful alone
This is a random part of about 23,000 reagents tested. 455 of all reagents (2%) were called active. 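Active includes both protection and sensitisation; some change values fall well beyond the stated -50 to +50 range.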 Further read-outs or replicates are left out here. Not given: the amount of reagent.

DYRK4 showed two-siRNA summed score (-2 to +2) = 0; mean protection from cisplatin (shift in death) (%) = 9.9; inactive.
Silencing of GRK1 came out at: two-siRNA summed score (-2 to +2) = 1; mean protection from cisplatin (shift in death) (%) = 14.5; inactive.
MAN2C1 showed two-siRNA summed score (-2 to +2) = 0; mean protection from cisplatin (shift in death) (%) = -12.5; inactive.
After knock-down of PHF10, the record shows two-siRNA summed score (-2 to +2) = 0; mean protection from cisplatin (shift in death) (%) = 4.9; inactive.
LOC389364 scored two-siRNA summed score (-2 to +2) = -1; mean protection from cisplatin (shift in death) (%) = -7.4; inactive.
NMUR1 gave two-siRNA summed score (-2 to +2) = 0; mean protection from cisplatin (shift in death) (%) = -4.7; inactive.
After knock-down of GRK5, the record shows two-siRNA summed score (-2 to +2) = 0; mean protection from cisplatin (shift in death) (%) = -0.9; inactive.
After knock-down of PHKG2, the screen gave two-siRNA summed score (-2 to +2) = 0; mean protection from cisplatin (shift in death) (%) = 8.5; inactive.
Depletion of LOC390217 resulted in: two-siRNA summed score (-2 to +2) = 0; mean protection from cisplatin (shift in death) (%) = 6.1; inactive.
LOC439943 gave two-siRNA summed score (-2 to +2) = 0; mean protection from cisplatin (shift in death) (%) = 8; inactive.
With knock-down of KIR3DL2, the record shows two-siRNA summed score (-2 to +2) = 0; mean protection from cisplatin (shift in death) (%) = 2.3; inactive.
Against FASTKD2 the deposit lists two-siRNA summed score (-2 to +2) = 1; mean protection from cisplatin (shift in death) (%) = 18.9; inactive.
For LOC441089 the deposit lists two-siRNA summed score (-2 to +2) = 0; mean protection from cisplatin (shift in death) (%) = -1.1; inactive.
After knock-down of RHOT1 the results were two-siRNA summed score (-2 to +2) = 1; mean protection from cisplatin (shift in death) (%) = 12.1; inactive.
For LOC339539 the deposit lists two-siRNA summed score (-2 to +2) = 0; mean protection from cisplatin (shift in death) (%) = -0.4; inactive.
After knock-down of CHPF, the screen gave two-siRNA summed score (-2 to +2) = 0; mean protection from cisplatin (shift in death) (%) = 4.5; inactive.
LOC389370 scored two-siRNA summed score (-2 to +2) = 0; mean protection from cisplatin (shift in death) (%) = 11; inactive.
For NGFR, the values are two-siRNA summed score (-2 to +2) = 0; mean protection from cisplatin (shift in death) (%) = 3.9; inactive.
For KHNYN, the values are two-siRNA summed score (-2 to +2) = 0; mean protection from cisplatin (shift in death) (%) = 8.1; inactive.
For PCDHB3 the deposit lists two-siRNA summed score (-2 to +2) = 0; mean protection from cisplatin (shift in death) (%) = 2.1; inactive.
After knock-down of SNED1, the record shows two-siRNA summed score (-2 to +2) = 0; mean protection from cisplatin (shift in death) (%) = -4.1; inactive.

In a second layout: results already given.
{"gene":"MAN2C1","two-siRNA summed score (-2 to +2)":0,"mean protection from cisplatin (shift in death) (%)":-12.5,"Call":"inactive"}
{"gene":"PHF10","two-siRNA summed score (-2 to +2)":0,"mean protection from cisplatin (shift in death) (%)":4.9,"Call":"inactive"}
